Results as given in PubChem BioAssay AID248 (DTP/NCI, 2004).
The list shows only some results of the screen, not a fair sample: it gathers tests that were run many times, whatever their T/C, doses with no T/C, and many T/C values between a quarter and a half above the control. Further doses and runs are listed elsewhere. T/C: endpoint of the treated group in % of that of the vehicle group. Some doses have a count of surviving animals in place of a T/C: the source files T/C as zero there, which appears to mark a toxic dose or a test without result, not a measured value. Some doses without a T/C left all or most animals alive at the check, yet need not have been tolerated: survival well below the control is almost never listed, so the zero probably covers shortened survival too. Counts of survivors are from the toxicity check (mostly the fifth day) where no day follows; animals may have died later. Schedules are NCI's codes, read here as Q, the interval in days (D) or hours (H), X, the number of doses. Some schedules carry Z or #; the key to these is not given. Some molecules as drawn cover several salts, stereoisomers or complexes of the source; a dose is that of the sample tested. Some entries were tested several times; the results are listed from low to high. Where survival is the endpoint, the PubChem record calls one and a half times the control and up active, and a quarter to a half above the control has no call in these data; cut-offs in other NCI protocols can differ. Some T/C values carry the count of animals alive at the toxicity check (mostly the fifth day); where none is given, no animal had died by that day.

Test system: L1210 leukemia ip in BDF1 mice, survival T/C
Test: NCI In Vivo Anticancer Drug Screen. Data for tumor model L1210 Leukemia (intraperitoneal) in B6D2F1 (BDF1) mice
Details: higher T/C = longer survival

Q: With Cc1c2ccncc2c(C)c2c1[nH]c1ccccc12 as the molecule, how does the T/C (T/C endpoint: mean survival time, dose: 600.0 mg/kg/injection, schedule: Q01DX001 (oral), vehicle: other, evaluated on day 60) read?
A: 88 [8 of 10 alive] and 143 % of control [9 of 10 alive]

Q: And the survivor count (T/C endpoint: mean survival time, dose: 600.0 mg/kg/injection, schedule: Q01DX001 (oral), vehicle: other)?
A: 0 of 10 and 3 of 10

Q: And the survivor count (T/C endpoint: mean survival time, dose: 600.0 mg/kg/injection, schedule: Q01DX001 (oral), vehicle: saline with Tween-80)?
A: 0 of 10

Q: And the survivor count (T/C endpoint: mean survival time, dose: 600.0 mg/kg/injection, schedule: Q01DX001 (oral), vehicle: saline)?
A: 6 of 10

Q: What about the survivor count (T/C endpoint: mean survival time, dose: 600.0 mg/kg/injection, schedule: Q08DX002 (ip), vehicle: other) of the same molecule?
A: 0 of 8

Q: And the survivor count (T/C endpoint: mean survival time, dose: 600.0 mg/kg/injection, schedule: Q08DX002 (ip), vehicle: steroid suspending solution)?
A: 8 of 8

Q: And the T/C (T/C endpoint: mean survival time, dose: 640.0 mg/kg/injection, schedule: Q01DX001 (ip), vehicle: acid diluted with saline)?
A: 133 % of control

Q: And the survivor count (T/C endpoint: mean survival time, dose: 800.0 mg/kg/injection, schedule: Q01DX001 (oral), vehicle: water)?
A: 4 of 6 and 5 of 6

Q: What about the survivor count (T/C endpoint: mean survival time, dose: 960.0 mg/kg/injection, schedule: Q## X008 (oral), vehicle: carboxymethylcellulose (CMC)) of the same molecule?
A: 8 of 10

Q: And the survivor count (T/C endpoint: mean survival time, dose: 960.0 mg/kg/injection, schedule: Q## X008 (oral), vehicle: other)?
A: 5 of 10

Q: What about the survivor count (T/C endpoint: mean survival time, dose: 960.0 mg/kg/injection, schedule: Q## X016 (oral), vehicle: other) of the same molecule?
A: 3 of 10

Q: What about the survivor count (T/C endpoint: mean survival time, dose: 1200.0 mg/kg/injection, schedule: Q01DX001 (ip), vehicle: steroid suspending solution) of the same molecule?
A: 7 of 8

Q: What about the survivor count (T/C endpoint: mean survival time, dose: 1200.0 mg/kg/injection, schedule: Q01DX001 (oral), vehicle: Klucel (hydroxypropylcellulose) (HPC)) of the same molecule?
A: 2 of 10

Q: What about the survivor count (T/C endpoint: mean survival time, dose: 1200.0 mg/kg/injection, schedule: Q01DX001 (oral), vehicle: other) of the same molecule?
A: 0 of 10 and 4 of 10

Q: What about the survivor count (T/C endpoint: mean survival time, dose: 1200.0 mg/kg/injection, schedule: Q01DX001 (oral), vehicle: saline with Tween-80) of the same molecule?
A: 3 of 10

Q: And the survivor count (T/C endpoint: mean survival time, dose: 1200.0 mg/kg/injection, schedule: Q01DX001 (oral), vehicle: saline)?
A: 4 of 10

Q: What about the survivor count (T/C endpoint: mean survival time, dose: 1200.0 mg/kg/injection, schedule: Q08DX002 (ip), vehicle: steroid suspending solution) of the same molecule?
A: 7 of 8

Q: What about the survivor count (T/C endpoint: mean survival time, dose: 1200.0 mg/kg/injection, schedule: Q## X002 (oral), vehicle: other) of the same molecule?
A: 5 of 10

Q: And the T/C (T/C endpoint: mean survival time, dose: 1280.0 mg/kg/injection, schedule: Q01DX001 (ip), vehicle: other)?
A: 127 % of control

Q: What about the T/C (T/C endpoint: median survival time, dose: 4.0 mg/kg/injection, schedule: Q01DX009 (sc), vehicle: water) of the same molecule?
A: 133 % of control

Q: What about the T/C (T/C endpoint: median survival time, dose: 4.0 mg/kg/injection, schedule: Q03HX008 (ip), vehicle: water) of the same molecule?
A: 133 % of control

Q: And the T/C (T/C endpoint: median survival time, dose: 8.0 mg/kg/injection, schedule: Q01DX009 (oral), vehicle: other)?
A: 127 % of control [9 of 10 alive]

Q: What about the T/C (T/C endpoint: median survival time, dose: 8.0 mg/kg/injection, schedule: Q03HX008 (oral), vehicle: other) of the same molecule?
A: 133 % of control [9 of 10 alive]

Q: And the T/C (T/C endpoint: median survival time, dose: 8.0 mg/kg/injection, schedule: Q03HX008 (sc), vehicle: water)?
A: 144 % of control

Q: What about the T/C (T/C endpoint: median survival time, dose: 16.0 mg/kg/injection, schedule: Q01DX009 (oral), vehicle: other) of the same molecule?
A: 133 % of control [8 of 10 alive]

Q: And the T/C (T/C endpoint: median survival time, dose: 16.0 mg/kg/injection, schedule: Q03HX008 (oral), vehicle: other)?
A: 144 % of control [9 of 10 alive]

Q: And the survivor count (T/C endpoint: median survival time, dose: 16.0 mg/kg/injection, schedule: Q03HX008 (sc), vehicle: water)?
A: 10 of 10

Q: What about the T/C (T/C endpoint: median survival time, dose: 25.0 mg/kg/injection, schedule: Q04DX003 (ip), vehicle: saline with Tween-80) of the same molecule?
A: 138 % of control

Q: What about the survivor count (T/C endpoint: median survival time, dose: 32.0 mg/kg/injection, schedule: Q03HX008 (ip), vehicle: other) of the same molecule?
A: 8 of 10

Q: And the survivor count (T/C endpoint: median survival time, dose: 32.0 mg/kg/injection, schedule: Q03HX008 (ip), vehicle: water)?
A: 2 of 10

Q: What about the T/C (T/C endpoint: median survival time, dose: 64.0 mg/kg/injection, schedule: Q01DX001 (sc), vehicle: water) of the same molecule?
A: 144 % of control

Q: What about the survivor count (T/C endpoint: median survival time, dose: 64.0 mg/kg/injection, schedule: Q01DX009 (sc), vehicle: water) of the same molecule?
A: 9 of 10

Q: What about the survivor count (T/C endpoint: median survival time, dose: 64.0 mg/kg/injection, schedule: Q03HX008 (ip), vehicle: other) of the same molecule?
A: 0 of 10

Q: And the survivor count (T/C endpoint: median survival time, dose: 64.0 mg/kg/injection, schedule: Q03HX008 (ip), vehicle: water)?
A: 0 of 9

Q: What about the survivor count (T/C endpoint: median survival time, dose: 64.0 mg/kg/injection, schedule: Q03HX008 (oral), vehicle: other) of the same molecule?
A: 7 of 10

Q: And the survivor count (T/C endpoint: median survival time, dose: 64.0 mg/kg/injection, schedule: Q03HX008 (sc), vehicle: water)?
A: 9 of 10

Q: And the T/C (T/C endpoint: median survival time, dose: 65.0 mg/kg/injection, schedule: Q01DX001 (ip), vehicle: Klucel (hydroxypropylcellulose) (HPC))?
A: 125 % of control

Q: What about the T/C (T/C endpoint: median survival time, dose: 128.0 mg/kg/injection, schedule: Q01DX001 (oral), vehicle: other) of the same molecule?
A: 144 % of control [9 of 10 alive]

Q: What about the survivor count (T/C endpoint: median survival time, dose: 128.0 mg/kg/injection, schedule: Q01DX009 (oral), vehicle: other) of the same molecule?
A: 10 of 10

Q: What about the T/C (T/C endpoint: median survival time, dose: 180.0 mg/kg/injection, schedule: Q01DX001 (ip), vehicle: Klucel (hydroxypropylcellulose) (HPC), evaluated on day 5) of the same molecule?
A: 127 % of control

Q: What about the T/C (T/C endpoint: median survival time, dose: 180.0 mg/kg/injection, schedule: Q01DX001 (ip), vehicle: Klucel (hydroxypropylcellulose) (HPC), evaluated on day 30) of the same molecule?
A: 130 % of control [7 of 8 alive]

Q: What about the survivor count (T/C endpoint: median survival time, dose: 300.0 mg/kg/injection, schedule: Q01DX001 (ip), vehicle: Klucel (hydroxypropylcellulose) (HPC)) of the same molecule?
A: 7 of 8

Q: And the survivor count (T/C endpoint: median survival time, dose: 500.0 mg/kg/injection, schedule: Q01DX001 (ip), vehicle: Klucel (hydroxypropylcellulose) (HPC))?
A: 7 of 8

Q: And the survivor count (T/C endpoint: median survival time, dose: 512.0 mg/kg/injection, schedule: Q01DX001 (oral), vehicle: other)?
A: 10 of 10
